Measured values published in article PMC8769378, “Underlining the Importance of Peripheral Protic Functional Groups to Enhance the Proton Exchange of Gd-Based MRI Contrast Agents” (Inorganic Chemistry, 2021).

Columns and labels:
[1] = Fit of relaxivity vs pH profiles: proton exchange kinetic and relaxation parameters; assay type: physicochemical; conditions: longitudinal relaxation time of the −OH proton; 20 MHz, 0.15 M NaCl, 298 K
Procedure: At pH >3, the r1 values of GdL2 decrease with the increase of pH from 6.6 mM^–1 s^–1 to reach a plateau of 5.1 mM^–1 s^–1 around pH = 7.5. A further increase of the pH results in the slight increase of r1 reaching a maximum around pH = 9.5. Finally, at pH >9.5, another small decrease in r1 is observed. On the other hand, in the case of GdL1, the r1 values are independent from the pH in the range 4.0–7.5, whereas at pH >8.0, r1 increases up to 5.2 mM^–1 s^–1. The r1 values of GdL1 were measured in the pH range 4–10 in order to avoid the hydrolysis of the methyl ester. […] Then, the overall relaxivity, r1, is given by eq 1: [drawing 1] 1 where r1^is, r1^os, and r1^pr are the relaxivity components due to the inner and outersphere water molecules and the −OH group, respectively. r1^pr can be expressed as follows:[26]−[28] [drawing 2] 2 […]
Proton relaxation measurements (1/T1) and the resulting 1/T1 NMRD profiles were measured on a fast-field cycling (FFC) Stelar SmarTracer relaxometer over a continuum of magnetic field strengths from 0.000 24 to 0.25 T (corresponding to 0.01–10 MHz proton Larmor frequencies). […] Furthermore, the real temperature inside the probe head was additionally monitored by a Fluke 52 k/j digital thermometer (Fluke, Zürich, Switzerland). The gadolinium concentration was determined by measuring the bulk magnetic susceptibility shifts of the t-BuOH ^1H NMR signal. […]

[2] = set-up: method as in PMID 34123071; conditions: 20 MHz, 0.15 M NaCl, 298 K ref 7; cited from earlier work

Row | Structure (SMILES) | T1^H × 10^6 [1] [s] | T1^H × 10^6 [2] [s]
1 | O=C([O-])CN1CCN(CC(=O)[O-])CCN(CC(O)C(=O)O)CCN(CC(=O)[O-])CC1.[Gd+3] (stereo not drawn) [GdL2] | 8.5 ± 0.1 | –
2 | NC(=O)[C@H](O)CN1CCN(CC(=O)[O-])CCN(CC(=O)[O-])CCN(CC(=O)[O-])CC1.[Gd+3] [GdHPADO3A] | – | 5.6
3 | CC(O)CN1CCN(CC(=O)[O-])CCN(CC(=O)[O-])CCN(CC(=O)[O-])CC1.[Gd+3] (stereo not drawn) [GdHPDO3A] | – | 5.0

Where two headings read alike, the source gives them in different places.
